No constants are given. Whether binding was seen depends on the method and setting. Some binding calls cover weakened binding; strength is not graded here.
Target: IGF-I receptor in homogenized adult rat brain tissue (cerebral cortex and cerebellum) (rat) (UniProt P24062)
Assay: displacement of 125I-[Thr59]IGF-I from homogenised rat brain tissue

Sequences of proteins named here, by UniProt entry; tags and fusion partners are left off. A change or cut given only in a name is not applied to a line headed by its entry. Residues count along the entry.
UniProt P24062, residues 31-1370: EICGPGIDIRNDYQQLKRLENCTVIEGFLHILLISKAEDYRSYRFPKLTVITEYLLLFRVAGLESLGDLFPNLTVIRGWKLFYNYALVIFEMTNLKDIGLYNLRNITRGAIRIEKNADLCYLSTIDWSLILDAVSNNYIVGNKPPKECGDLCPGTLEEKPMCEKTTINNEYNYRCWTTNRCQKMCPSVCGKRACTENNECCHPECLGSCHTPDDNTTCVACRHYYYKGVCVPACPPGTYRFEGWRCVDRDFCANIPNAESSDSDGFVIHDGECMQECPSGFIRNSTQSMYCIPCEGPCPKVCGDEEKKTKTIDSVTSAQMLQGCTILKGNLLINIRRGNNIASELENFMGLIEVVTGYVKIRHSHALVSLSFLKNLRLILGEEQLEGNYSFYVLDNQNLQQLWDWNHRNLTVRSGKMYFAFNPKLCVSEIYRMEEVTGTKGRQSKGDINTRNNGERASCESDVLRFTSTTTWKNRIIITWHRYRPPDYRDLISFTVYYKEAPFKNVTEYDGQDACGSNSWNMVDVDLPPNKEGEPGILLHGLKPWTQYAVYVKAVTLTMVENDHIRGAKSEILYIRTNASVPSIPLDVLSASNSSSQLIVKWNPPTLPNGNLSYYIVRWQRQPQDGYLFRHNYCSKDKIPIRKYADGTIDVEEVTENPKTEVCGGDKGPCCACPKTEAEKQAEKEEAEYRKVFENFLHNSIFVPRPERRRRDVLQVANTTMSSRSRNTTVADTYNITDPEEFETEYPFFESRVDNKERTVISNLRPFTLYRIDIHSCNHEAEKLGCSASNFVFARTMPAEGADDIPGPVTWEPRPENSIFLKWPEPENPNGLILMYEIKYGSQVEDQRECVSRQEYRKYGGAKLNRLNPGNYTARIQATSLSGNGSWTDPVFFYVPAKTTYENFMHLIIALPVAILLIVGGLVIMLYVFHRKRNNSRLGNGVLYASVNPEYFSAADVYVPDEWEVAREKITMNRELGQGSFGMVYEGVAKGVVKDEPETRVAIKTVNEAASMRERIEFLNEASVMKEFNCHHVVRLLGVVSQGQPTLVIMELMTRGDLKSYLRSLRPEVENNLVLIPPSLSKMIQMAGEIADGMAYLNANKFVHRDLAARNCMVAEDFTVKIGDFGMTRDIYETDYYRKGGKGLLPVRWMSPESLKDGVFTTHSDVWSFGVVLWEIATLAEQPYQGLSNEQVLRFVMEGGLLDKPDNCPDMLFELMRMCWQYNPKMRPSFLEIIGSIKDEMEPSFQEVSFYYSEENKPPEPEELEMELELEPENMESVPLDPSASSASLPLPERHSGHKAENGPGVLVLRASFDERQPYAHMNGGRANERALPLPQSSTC
UniProt P05019: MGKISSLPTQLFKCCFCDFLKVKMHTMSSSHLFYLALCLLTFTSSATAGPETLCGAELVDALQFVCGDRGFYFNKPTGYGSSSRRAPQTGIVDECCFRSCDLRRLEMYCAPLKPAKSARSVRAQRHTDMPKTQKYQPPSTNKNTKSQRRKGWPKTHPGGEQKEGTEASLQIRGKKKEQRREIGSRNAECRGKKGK

binding | Substance
binds | IGF-I(4-70) (Human Brain IGF) (from UniProt P05019 52-118) (ligand)
binds | Human IGF-I (Somatomedin-C) (from UniProt P05019 49-118) (ligand)

Source: patent US6693076
